Experimental data published in the supplement of paper PMC10849652.
Some of the results follow.

Chains of the proteins cited; added tags and fusions are not shown. Lines headed by an entry give the natural chain unless they say otherwise; changes in a name come on top.
UniProt Q9NQ34: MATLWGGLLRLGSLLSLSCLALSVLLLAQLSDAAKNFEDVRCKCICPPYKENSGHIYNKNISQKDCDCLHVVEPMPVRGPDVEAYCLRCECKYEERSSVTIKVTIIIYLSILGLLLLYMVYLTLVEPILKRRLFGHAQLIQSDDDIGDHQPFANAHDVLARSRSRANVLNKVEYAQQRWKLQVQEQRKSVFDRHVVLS
UniProt Q8IY95: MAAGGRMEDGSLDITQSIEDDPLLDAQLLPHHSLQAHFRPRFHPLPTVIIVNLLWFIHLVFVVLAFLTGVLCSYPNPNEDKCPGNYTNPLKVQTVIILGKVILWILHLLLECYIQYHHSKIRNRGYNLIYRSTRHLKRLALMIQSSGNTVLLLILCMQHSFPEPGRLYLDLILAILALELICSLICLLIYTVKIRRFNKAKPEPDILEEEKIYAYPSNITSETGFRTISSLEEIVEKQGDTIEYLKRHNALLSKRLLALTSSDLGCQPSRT
UniProt P20333, whole entry, looked up: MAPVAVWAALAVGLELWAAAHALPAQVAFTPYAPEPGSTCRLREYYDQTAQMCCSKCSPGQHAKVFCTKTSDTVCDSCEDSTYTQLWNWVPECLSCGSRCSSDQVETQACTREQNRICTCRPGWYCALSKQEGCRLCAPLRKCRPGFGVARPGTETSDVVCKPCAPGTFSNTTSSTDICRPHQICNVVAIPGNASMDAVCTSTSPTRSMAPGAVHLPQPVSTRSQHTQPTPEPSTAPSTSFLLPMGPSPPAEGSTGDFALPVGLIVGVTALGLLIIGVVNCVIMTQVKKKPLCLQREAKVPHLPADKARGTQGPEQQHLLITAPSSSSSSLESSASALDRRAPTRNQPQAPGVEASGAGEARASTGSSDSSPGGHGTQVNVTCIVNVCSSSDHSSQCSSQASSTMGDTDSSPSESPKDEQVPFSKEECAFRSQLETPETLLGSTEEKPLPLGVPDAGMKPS
UniProt O14773: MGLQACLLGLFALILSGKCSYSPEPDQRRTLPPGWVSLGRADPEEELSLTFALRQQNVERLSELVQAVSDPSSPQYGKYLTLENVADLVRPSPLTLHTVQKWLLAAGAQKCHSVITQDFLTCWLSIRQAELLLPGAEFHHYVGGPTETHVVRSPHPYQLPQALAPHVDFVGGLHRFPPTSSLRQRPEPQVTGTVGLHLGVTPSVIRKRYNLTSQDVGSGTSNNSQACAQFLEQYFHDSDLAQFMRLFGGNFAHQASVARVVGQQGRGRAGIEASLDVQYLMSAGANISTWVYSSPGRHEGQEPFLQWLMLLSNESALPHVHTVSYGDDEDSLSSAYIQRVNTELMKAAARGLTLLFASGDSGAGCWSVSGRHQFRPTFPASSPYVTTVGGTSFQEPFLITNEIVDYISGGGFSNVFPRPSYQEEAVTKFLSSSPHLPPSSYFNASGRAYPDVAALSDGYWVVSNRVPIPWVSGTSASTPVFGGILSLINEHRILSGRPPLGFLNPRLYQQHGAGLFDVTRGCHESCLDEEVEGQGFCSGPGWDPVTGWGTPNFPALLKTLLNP
UniProt Q9BTV4: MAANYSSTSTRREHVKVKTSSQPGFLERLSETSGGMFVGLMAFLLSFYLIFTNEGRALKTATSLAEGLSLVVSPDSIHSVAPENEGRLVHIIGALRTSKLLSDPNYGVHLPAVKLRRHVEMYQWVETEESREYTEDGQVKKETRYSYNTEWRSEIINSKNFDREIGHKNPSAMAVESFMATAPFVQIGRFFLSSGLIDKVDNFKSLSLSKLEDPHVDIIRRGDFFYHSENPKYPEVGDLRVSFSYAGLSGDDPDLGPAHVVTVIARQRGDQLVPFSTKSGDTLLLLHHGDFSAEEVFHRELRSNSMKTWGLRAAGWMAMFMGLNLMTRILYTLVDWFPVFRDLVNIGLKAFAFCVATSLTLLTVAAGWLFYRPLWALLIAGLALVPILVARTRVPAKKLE
UniProt O95379: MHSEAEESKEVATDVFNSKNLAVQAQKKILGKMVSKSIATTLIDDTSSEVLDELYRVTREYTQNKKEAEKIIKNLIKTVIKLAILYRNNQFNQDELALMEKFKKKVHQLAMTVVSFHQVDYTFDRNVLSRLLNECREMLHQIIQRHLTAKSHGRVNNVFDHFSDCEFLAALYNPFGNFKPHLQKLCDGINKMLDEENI
UniProt Q9NYL9: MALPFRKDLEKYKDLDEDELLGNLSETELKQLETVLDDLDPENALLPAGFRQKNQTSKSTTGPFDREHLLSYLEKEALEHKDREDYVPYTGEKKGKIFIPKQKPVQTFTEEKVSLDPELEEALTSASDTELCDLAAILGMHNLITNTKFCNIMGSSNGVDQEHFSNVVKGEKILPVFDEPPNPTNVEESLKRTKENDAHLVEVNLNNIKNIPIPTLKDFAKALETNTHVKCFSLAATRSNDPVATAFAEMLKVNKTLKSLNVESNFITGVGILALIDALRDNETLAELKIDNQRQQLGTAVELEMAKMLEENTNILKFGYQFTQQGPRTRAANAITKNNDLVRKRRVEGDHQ
UniProt Q5JTV8: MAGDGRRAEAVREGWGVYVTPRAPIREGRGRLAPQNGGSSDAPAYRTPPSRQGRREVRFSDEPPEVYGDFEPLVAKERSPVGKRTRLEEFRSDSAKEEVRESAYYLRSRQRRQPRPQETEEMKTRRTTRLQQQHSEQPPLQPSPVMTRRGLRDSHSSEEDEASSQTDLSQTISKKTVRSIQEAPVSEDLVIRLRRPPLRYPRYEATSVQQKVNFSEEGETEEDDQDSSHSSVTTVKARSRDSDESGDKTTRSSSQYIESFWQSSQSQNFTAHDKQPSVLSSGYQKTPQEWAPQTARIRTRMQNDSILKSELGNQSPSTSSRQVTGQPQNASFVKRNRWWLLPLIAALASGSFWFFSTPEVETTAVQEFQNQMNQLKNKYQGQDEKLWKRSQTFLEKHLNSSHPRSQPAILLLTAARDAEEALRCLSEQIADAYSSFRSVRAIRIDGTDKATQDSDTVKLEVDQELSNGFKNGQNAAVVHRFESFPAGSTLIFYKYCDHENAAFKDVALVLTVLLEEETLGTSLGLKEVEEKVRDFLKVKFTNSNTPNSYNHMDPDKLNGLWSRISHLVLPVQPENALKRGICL
UniProt Q92973: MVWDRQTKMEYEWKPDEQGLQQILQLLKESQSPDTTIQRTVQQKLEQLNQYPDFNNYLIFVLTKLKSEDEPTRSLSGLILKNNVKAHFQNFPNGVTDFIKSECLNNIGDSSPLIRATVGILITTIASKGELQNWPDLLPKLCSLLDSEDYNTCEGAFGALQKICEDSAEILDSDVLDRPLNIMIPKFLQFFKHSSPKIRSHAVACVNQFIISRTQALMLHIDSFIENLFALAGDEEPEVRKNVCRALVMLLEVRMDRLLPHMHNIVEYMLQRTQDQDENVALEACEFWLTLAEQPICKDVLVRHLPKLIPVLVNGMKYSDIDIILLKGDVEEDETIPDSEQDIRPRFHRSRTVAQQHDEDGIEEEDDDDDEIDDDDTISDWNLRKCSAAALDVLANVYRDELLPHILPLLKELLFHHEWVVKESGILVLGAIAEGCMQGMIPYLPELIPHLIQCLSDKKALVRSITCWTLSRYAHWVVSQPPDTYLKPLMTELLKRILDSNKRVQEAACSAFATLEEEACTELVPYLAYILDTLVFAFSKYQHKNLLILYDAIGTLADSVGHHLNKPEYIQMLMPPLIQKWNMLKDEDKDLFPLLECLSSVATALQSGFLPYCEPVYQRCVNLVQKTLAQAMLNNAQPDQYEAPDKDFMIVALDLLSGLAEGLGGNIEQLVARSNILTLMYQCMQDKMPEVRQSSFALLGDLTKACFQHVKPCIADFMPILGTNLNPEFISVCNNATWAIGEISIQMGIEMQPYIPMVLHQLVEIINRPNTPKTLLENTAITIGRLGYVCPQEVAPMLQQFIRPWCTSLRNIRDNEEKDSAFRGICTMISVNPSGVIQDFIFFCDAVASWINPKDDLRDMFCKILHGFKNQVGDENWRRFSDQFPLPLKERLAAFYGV
UniProt P29144: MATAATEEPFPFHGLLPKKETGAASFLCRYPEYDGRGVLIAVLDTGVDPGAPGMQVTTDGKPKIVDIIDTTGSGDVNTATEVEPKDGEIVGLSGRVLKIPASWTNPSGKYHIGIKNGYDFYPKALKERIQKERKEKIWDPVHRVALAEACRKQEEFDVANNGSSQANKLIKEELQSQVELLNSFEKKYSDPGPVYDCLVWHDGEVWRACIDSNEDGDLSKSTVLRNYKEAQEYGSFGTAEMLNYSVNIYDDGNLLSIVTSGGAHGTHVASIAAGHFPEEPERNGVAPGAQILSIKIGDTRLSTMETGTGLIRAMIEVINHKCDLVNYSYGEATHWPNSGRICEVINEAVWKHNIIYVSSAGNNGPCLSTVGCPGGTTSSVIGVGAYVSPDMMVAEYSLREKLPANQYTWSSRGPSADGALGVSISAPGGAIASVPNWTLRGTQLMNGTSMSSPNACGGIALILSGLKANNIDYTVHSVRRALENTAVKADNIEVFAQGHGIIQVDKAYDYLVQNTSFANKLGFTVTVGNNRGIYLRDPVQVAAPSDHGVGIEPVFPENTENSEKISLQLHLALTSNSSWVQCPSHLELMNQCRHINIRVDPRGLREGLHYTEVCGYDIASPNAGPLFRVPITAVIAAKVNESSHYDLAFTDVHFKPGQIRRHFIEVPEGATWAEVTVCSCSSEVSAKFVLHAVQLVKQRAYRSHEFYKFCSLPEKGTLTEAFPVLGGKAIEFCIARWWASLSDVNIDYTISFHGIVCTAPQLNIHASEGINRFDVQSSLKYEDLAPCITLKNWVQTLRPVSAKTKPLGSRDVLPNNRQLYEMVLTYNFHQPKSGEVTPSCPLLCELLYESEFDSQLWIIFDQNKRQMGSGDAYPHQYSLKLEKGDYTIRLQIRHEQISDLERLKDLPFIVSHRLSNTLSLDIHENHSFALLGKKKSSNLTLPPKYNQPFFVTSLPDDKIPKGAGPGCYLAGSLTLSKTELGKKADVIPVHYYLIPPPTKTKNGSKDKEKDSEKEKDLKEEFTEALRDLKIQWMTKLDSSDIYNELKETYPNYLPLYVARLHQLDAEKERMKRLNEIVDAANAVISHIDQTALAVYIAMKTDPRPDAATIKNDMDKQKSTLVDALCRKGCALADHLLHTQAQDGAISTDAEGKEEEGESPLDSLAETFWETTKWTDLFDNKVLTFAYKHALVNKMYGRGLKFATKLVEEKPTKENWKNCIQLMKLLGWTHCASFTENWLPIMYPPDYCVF
UniProt Q13625: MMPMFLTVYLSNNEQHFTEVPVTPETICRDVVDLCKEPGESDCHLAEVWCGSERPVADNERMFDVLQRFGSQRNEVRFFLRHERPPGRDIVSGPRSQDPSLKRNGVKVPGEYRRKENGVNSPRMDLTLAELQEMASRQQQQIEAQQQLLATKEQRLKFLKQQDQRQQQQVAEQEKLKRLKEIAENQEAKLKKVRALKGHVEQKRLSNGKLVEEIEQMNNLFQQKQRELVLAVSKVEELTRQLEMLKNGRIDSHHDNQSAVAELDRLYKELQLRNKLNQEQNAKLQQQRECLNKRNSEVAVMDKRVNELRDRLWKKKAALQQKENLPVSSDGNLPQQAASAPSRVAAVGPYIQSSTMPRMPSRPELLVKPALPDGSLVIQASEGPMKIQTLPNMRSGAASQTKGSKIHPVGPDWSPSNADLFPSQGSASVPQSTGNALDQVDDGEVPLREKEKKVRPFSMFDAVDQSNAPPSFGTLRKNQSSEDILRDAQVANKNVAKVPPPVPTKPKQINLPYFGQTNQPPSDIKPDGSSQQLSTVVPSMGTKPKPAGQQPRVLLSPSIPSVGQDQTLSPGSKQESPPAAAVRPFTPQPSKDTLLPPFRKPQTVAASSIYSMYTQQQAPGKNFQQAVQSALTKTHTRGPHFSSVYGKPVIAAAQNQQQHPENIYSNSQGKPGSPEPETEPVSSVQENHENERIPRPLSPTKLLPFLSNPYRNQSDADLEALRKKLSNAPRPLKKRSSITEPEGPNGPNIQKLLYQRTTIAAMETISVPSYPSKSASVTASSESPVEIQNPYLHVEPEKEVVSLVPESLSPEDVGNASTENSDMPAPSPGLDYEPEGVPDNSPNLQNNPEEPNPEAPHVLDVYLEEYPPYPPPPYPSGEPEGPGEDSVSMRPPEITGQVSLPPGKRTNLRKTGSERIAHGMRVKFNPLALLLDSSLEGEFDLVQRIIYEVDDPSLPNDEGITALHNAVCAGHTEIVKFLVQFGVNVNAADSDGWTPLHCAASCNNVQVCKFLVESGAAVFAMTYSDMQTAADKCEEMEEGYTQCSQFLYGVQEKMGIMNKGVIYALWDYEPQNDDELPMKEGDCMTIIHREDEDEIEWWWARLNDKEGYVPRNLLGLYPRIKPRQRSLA
UniProt P67936, whole entry, looked up: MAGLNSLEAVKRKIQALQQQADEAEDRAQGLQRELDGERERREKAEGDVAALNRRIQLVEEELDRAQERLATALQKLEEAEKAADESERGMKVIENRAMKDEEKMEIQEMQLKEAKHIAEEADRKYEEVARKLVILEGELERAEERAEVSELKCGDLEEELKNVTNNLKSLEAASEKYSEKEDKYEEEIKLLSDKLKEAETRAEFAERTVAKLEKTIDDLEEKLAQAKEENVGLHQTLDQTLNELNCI

These targets were tested with CC1=C(C(CC(=O)N1)C2=CC=C(C=C2)C(F)(F)F)C(=O)NC3=C(C=C4C(=C3)C=NN4)F (assay: log2 fold change, soluble protein after heating vs DMSO (PISA); higher = thermal stabilisation; K562 lysate, 10 uM; active = over 0.2 and 3.5 SD of the protein, either way, in both replicates (recomputed)).
Outline: (§1)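 K562 pellets were dounce-homogenised in PBS pH 7.4 containing 1 mM MgCl2, and the crude extract, at 1 mg/mL protein, was exposed to 10 μM compound for 30 min. Aliquots were heated for 3 min across 48°C-58°C, pooled, brought to 0.5% NP-40 at 4°C and spun at 21,000xg for 90 min, with the supernatant taken as soluble protein. TMTpro 16plex LC-MS/MS with equalised channel sums quantified that protein. Values are log-two fold changes in thermal stability relative to solvent controls, taken from duplicates.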

Question: With TMEM219 (UniProt Q86XT9) as the target, how does the log2 fold change read?
Answer: The log2 fold change was inactive: 0.025.

Question: For TMEM9B (UniProt Q9NQ34), which log2 fold change is on record?
Answer: Its log2 fold change is inactive: 0.022.

Question: How did the log2 fold change turn out when TMX3 (UniProt Q96JJ7) was run?
Answer: Its log2 fold change is inactive: -0.013.

Question: For TPR (UniProt P12270), which log2 fold change is on record?
Answer: The log2 fold change was inactive: -0.008.

Question: How did the log2 fold change turn out when TMEM192 (UniProt Q8IY95) was run?
Answer: Its log2 fold change is inactive: 0.002.

Question: With TPX2 (UniProt Q9ULW0) as the target, how does the log2 fold change read?
Answer: Its log2 fold change is inactive: -0.005.

Question: TNFRSF1B (UniProt P20333) was tested. Which log2 fold change did it give?
Answer: Its log2 fold change is inactive: 0.066.

Question: For TPP1 (UniProt O14773), which log2 fold change is on record?
Answer: The log2 fold change was inactive: 0.002.

Question: For TP53I3 (UniProt Q53FA7), which log2 fold change is on record?
Answer: Its log2 fold change is inactive: 0.013.

Question: TMEM43 (UniProt Q9BTV4) was tested. Which log2 fold change did it give?
Answer: Its log2 fold change is inactive: 0.023.

Question: For TNFAIP8 isoform 4 (UniProt O95379), which log2 fold change is on record?
Answer: Its log2 fold change is inactive: -0.034.

What follows are targets tested with CC1=C(C2=C(C=C1)C(=O)C3=CC=CC=C3N2CCCN)C in the same assay as above.
Outline: as §1

Question: With TPI1 (UniProt P60174) as the target, how does the log2 fold change read?
Answer: The log2 fold change was inactive: -0.003.

Question: TMOD3 (UniProt Q9NYL9) was tested. Which log2 fold change did it give?
Answer: Its log2 fold change is inactive: 0.005.

Question: TOR1AIP1 isoform 3 (UniProt Q5JTV8) was tested. Which log2 fold change did it give?
Answer: The log2 fold change was inactive: 0.008.

Question: Which log2 fold change does the source give for TNPO1 (UniProt Q92973) here?
Answer: The log2 fold change was inactive: 0.034.

Question: How did the log2 fold change turn out when TPP2 (UniProt P29144) was run?
Answer: The log2 fold change was inactive: 0.003.

Question: For TOR1AIP2 (UniProt Q8NFQ8), which log2 fold change is on record?
Answer: The log2 fold change was inactive: -0.007.

Question: For TP53BP1 isoform 2 (UniProt Q12888), which log2 fold change is on record?
Answer: Its log2 fold change is inactive: -0.033.

Question: For TP53BP2 isoform 3 (UniProt Q13625), which log2 fold change is on record?
Answer: The log2 fold change was inactive: 0.043.

Question: Which log2 fold change does the source give for TMEM245 (UniProt Q9H330) here?
Answer: Its log2 fold change is inactive: 0.042.

Question: Which log2 fold change does the source give for TPM1 isoform 4 (UniProt P09493) here?
Answer: Its log2 fold change is inactive: 0.062.

Question: Which log2 fold change does the source give for TPM4 (UniProt P67936) here?
Answer: Its log2 fold change is inactive: 0.012.
